For assay [1], the target named is T1, strep-tagged Psb34 (Psb34-TS) (T. elongatus) (UniProt Q8DMP8).
T1 sequence: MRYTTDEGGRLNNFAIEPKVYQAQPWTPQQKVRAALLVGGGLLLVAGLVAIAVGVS
Put plainly: pull-down.

By UniProt entry, the sequences of proteins in these tests, tags left out. Where a name states a change or a piece, a line headed by the entry shows the natural chain unless it says otherwise.
UniProt Q8DIQ1: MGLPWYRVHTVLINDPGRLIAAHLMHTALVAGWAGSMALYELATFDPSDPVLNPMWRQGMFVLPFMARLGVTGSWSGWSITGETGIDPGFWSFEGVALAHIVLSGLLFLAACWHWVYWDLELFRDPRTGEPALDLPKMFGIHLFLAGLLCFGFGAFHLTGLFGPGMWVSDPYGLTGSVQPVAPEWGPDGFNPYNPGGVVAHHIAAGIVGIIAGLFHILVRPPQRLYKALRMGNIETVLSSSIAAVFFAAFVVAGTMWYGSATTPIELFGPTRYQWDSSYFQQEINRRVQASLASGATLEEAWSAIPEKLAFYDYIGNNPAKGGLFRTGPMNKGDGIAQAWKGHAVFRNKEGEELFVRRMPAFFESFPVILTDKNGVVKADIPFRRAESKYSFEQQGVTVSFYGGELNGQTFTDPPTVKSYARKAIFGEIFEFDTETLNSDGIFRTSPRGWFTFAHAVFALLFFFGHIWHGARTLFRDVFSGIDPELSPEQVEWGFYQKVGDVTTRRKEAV

The target of assay [2] is CP47 (PsbB) (T. elongatus (endogenous in T. elongatus ΔpsbJ psbC-TS)) (UniProt Q8DIQ1). The experiment in a line: cryo-EM structure.
Assay [3] deals with CP43 with C-terminal twin-strep-tag (PsbC-TS) (T. elongatus) (UniProt Q8DIF8). The experiment in a line: cryo-EM structure.

No constants are given. Whether binding was seen depends on the method and setting. For part of these data: Binding seen in cells or lysates may run through a third protein. Some entries that bind do so weakly or less than the wild type. For part of these data: Tags and fused reporters may be left off the sequences shown.

With “CP43 (untagged, in the psb34-TS strain) (from UniProt Q8DIF8 1-461)”, the binding result in assay [1] is listed as “binds”.

B1: Psb34 (tsl0063) (protein, UniProt Q8DMP8 1-56)
chain: T1 sequence
Consider B1, for which the binding entry in assay [2] was “binds”.

B2: Psb28 (in PSII assembly intermediates) (protein, UniProt Q8DLJ8 1-116)
chain: MGAMAEIQFIRGINEEVVPDVRLTRARDGSSGQAMFYFDNPKIVQEGNLEVTGMYMVDEEGEIVTRDVNAKFINGQPVAIEATYTMRSPQEWDRFIRFMDRYAASHGLGFQKSENS
Turning to B2, the binding result in assay [1] and in assay [2] was “binds” each time.

B3: Psb27 (in PSII assembly intermediates) (protein, UniProt Q8DG60 22-134)
chain: CANVPTGLTGNFREDTLALISSLREAIALPENDPNKKAAQAEARKKLNDFFALYRRDDSLRSLSSFMTMQTALNSLAGHYSSYPNRPLPEKLKARLEQEFKQVELALDREAKS
B3: the binding result in assay [1] and in assay [3] was “binds” in each case.
